This note sets out measurements from doi:10.1101/2023.07.28.550924 (bioRxiv, 2023).

These are yes or no findings as the source states them, for the method shown. Binding calls can cover weak binding; strength is not graded here.

The target of the experiment is StYeeD(L45A), His-tagged (Spirochaeta thermophila) (UniProt G0GAP7). In words: BLI. For orientation: Biolayer interferometry detects binding as a change in optical thickness at a sensor tip.

B1: Spirochaeta thermophila YeeE (protein, UniProt G0GAP6 1-328)
chain: MIWTGLLVGFLFGIVLQRGRICFNSAFRDVLLFKDNYLFKLAVFTLALEMILFVLLSQVGLMQMNPKPLNLVGNIIGGFVFGLGMVLAGGCASGVTYRVGEGLTTAWFAALFYGLGAYATKSGAFSWWLSWVGQFKSPLSVEESAYYVKGAGPTISSVLGLNPWIPALVIAALFILWAFGTKTTSRETKFNWKIASVCLALVAGLGFITSTLSGRKYGLGITGGWINLFQGFLTNSPLNWEGLEIVGIILGAGVAAAVAGEFKLRMPKNPVTYLQVGIGGLLMGIGAVTAGGCNIGHFLTGVPQLALSSWLASIFFILGNWTMAWILF
As to B1, the binding result is recorded as “binds”.
